US6428820B2, “Extracts of Hypericum perforatum and formulations containing them” (Indena S.p.A., priority 1999, dated 2002)
At least one structure is not confirmed: it was looked up by name or label, or the drawing left a doubt.

Assays:
serotonin (5-HT) uptake = assay: Inhibition of 3H 5-HT (serotonin) uptake; assay type: biochemical; conditions: inhibition of 3H 5-HT uptake
dopamine (DA) uptake = conditions: inhibition of 3H DA uptake

Cc1cc(O)c2c(=O)c3c(O)cc(O)c4c5c(O)cc(O)c6c(=O)c7c(O)cc(C)c8c1c2c(c34)c(c78)c65 [Hypericin]
IC50 3H-5 HT uptake (serotonin (5-HT) uptake): >50 µg/mL | IC50 3H DA uptake (dopamine (DA) uptake): >50 µg/mL
